We go through 1 substance from PMC10499034.

No constants are given. Whether binding was seen depends on the method and setting. Binding seen in cells or lysates may run through a third protein. A result given as binding can be weak or reduced; the word gives no strength. Where a sequence is shown, tags or fusion partners need not be part of it.

This assay deals with T1, GST-tagged Rab19 (UniProt A4D1S5).
T1 sequence: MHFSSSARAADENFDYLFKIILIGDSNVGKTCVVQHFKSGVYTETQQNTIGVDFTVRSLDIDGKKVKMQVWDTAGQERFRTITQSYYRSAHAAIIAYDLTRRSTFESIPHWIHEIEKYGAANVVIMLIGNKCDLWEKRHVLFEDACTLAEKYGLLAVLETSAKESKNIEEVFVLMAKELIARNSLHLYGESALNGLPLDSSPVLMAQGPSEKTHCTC
The experiment in a line: pull-down; purified GST–Rab19 added to WT or Vps41 KO MDCK cell lysates, loaded with GMP-PCP or GDP, captured on glutathione beads; lysis 20 mM HEPES pH 7.4, 150 mM NaCl, 1% Triton-X; washes with 300 mM NaCl, 0.1% Triton-X; immunoblot for endogenous Vps11; only the target purified.

For the substance Vps11 (endogenous, MDCK cells), the binding entry is on record as “binds”.
